Experimental data as given in patent publication US4555525A, “Use of desethyl-N-acetylprocainamide (NAPADE) as an inotropic agent” (Administrators of the Tulane Educational Fund, priority 1984, dated 1985).
Values joined by “and” are separate entries in the source; they are usually repeats but may differ in a detail not shown here. Equal entries are not always repeated. At least one read-out could not be matched to a standard name with certainty.

Test: NAPADE pharmacokinetics in chloralose-urethane anesthetized dogs (HPLC plasma levels, two-compartment model)
Type: in vivo, dog (male mongrel)
Conditions: NAPADE-HCl 60 mg/kg, 15-minute IV infusion
Method: Blood samples were obtained over a period of 5-120 minutes to measure NAPADE plasma concentration by high-performance liquid chromatography (HPLC) and to construct a plasma concentration versus time curve of FIG. 1.
The pharmacokinetics of NAPADE were analyzed with a two-compartment model with elimination from the central compartment. The method of residuals was used to resolve the exponential components of each plasma concentration versus time curve and to obtain estimates of alpha and beta (first-order rate constants) and A and B intercepts corrected to 0-time using the method of Loo and Reigelman. These parameters were then used to estimate apparent volume of distribution (V central, V peripheral, V total) and clearance values (Cl intercompartmental, Cl elimination) for each dog according to standard pharmacokinetic methodology.

[1] = individual dogs No. 1-8, one line per dog, 60 mg/kg

Compound: CCNCCNC(=O)c1ccc(NC(C)=O)cc1 [NAPADE, Desethyl-N-acetylprocainamide]
- VCENTRAL (volume of the central compartment) [1]: 0.188 L/kg and 0.104 L/kg and 0.159 L/kg and 0.212 L/kg and 0.219 L/kg and 0.111 L/kg and 0.090 L/kg and 0.137 L/kg
- VPERIPHERAL (volume of the peripheral compartment) [1]: 0.258 L/kg and 0.237 L/kg and 0.733 L/kg and 0.264 L/kg and 0.586 L/kg and 0.388 L/kg and 0.203 L/kg and 0.208 L/kg
- VPERIPHERAL (volume of the peripheral compartment) (mean of 8 dogs): 0.360 L/kg
